Measured values as given in article doi:10.1101/2024.06.05.597643, “Identification and characterization of a human MORC2 DNA binding region that is required for gene silencing” (bioRxiv, 2024).
No constants are given. Whether binding was seen depends on the method and setting.

The chains behind the UniProt entries cited, without tags or fusion partners. Residues count along the entry.
UniProt Q9Y6X9, residues 1-603: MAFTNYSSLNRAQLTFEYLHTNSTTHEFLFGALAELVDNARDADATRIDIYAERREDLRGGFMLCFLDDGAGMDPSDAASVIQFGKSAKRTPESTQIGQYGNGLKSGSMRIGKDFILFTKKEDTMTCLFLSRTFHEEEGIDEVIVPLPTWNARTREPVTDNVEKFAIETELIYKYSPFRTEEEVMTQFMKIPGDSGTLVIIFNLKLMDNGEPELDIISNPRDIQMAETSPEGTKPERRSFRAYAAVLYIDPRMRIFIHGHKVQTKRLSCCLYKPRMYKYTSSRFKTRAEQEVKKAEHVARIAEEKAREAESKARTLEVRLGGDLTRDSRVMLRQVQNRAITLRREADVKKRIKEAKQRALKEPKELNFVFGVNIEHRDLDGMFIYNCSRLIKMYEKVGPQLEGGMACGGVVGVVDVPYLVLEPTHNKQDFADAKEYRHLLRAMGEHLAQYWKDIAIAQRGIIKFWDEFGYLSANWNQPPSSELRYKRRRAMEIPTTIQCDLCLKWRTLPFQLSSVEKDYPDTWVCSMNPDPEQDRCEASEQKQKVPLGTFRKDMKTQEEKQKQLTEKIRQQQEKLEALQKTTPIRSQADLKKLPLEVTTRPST

Molecular target: MORC2 1-603 (human) (UniProt Q9Y6X9)
Test: SEC-MALS; 1-603 MORC2 1 mg/mL, 50 mM NaCl, 3 mM MgCl2, 20 mM Na-HEPES pH 7.4, 0.5 mM TCEP, 1.5% glycerol, 0.025 mM ZnCl2, without AMP-PNP; Wyatt 030 column; both purified

“MORC2 1-603 (from UniProt Q9Y6X9 1-603) (domain or fragment)” was tested, and the binding was “no binding (condition: without AMP-PNP)”.
